Measured data: PubChem BioAssay AID1259425 (University of Nebraska Medical Center, 2018)

Screen: 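Seek colon cancer weak points whose silencing resembles KSR1 loss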 (primary screen)
Cells: HCT116 human colon cancer cells
Reagents: siRNA pool against human genes, 50 nM siRNA
Measurement: 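mRNA of six signature genes measured together by branched-DNA assay after 50 nM siRNA pool, blank removed, divided by geometric mean of two housekeeping genes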
Reading the numbers: BNIP3L mRNA: higher = more BNIP3L transcript after knockdown; NDRG1 mRNA: higher = more NDRG1 transcript after knockdown
In all, the deposit lists about 14,000 reagents; below is a part drawn at random. A reagent listed more than once was tested more than once; the source does not tell the runs apart. Not all columns of the deposit are shown. Reagent sequences are not shown. Not given: the time to read-out.

Which result is listed for SEC22B?
BNIP3L mRNA, set 1: 0.193; NDRG1 mRNA, set 1: 0.954

What did the screen give for CCNA2?
BNIP3L mRNA, set 1: 0.06; NDRG1 mRNA, set 1: 0.242

For HES2, what was measured?
BNIP3L mRNA, set 1: 0.15; NDRG1 mRNA, set 1: 0.334

With POLE2, what was measured?
BNIP3L mRNA, set 1: 0.163; NDRG1 mRNA, set 1: 0.314

How did the screen score ZNF280D?
BNIP3L mRNA, set 1: 0.675; NDRG1 mRNA, set 1: 2.49

What did the screen give for HERC1?
BNIP3L mRNA, set 1: 0.0665; NDRG1 mRNA, set 1: 0.0312

What did the screen give for NUCB2?
BNIP3L mRNA, set 1: 0.0757; NDRG1 mRNA, set 1: 0.195

What is on record for CKB?
BNIP3L mRNA, set 1: 0.103; NDRG1 mRNA, set 1: 0.0998

What did the screen give for SLC8A2?
BNIP3L mRNA, set 1: 0.126; NDRG1 mRNA, set 1: 0.127

What is on record for KCTD10?
BNIP3L mRNA, set 1: 0.288; NDRG1 mRNA, set 1: 1.21

What did the screen give for FIP1L1?
BNIP3L mRNA, set 1: 0.143; NDRG1 mRNA, set 1: 0.788

What did the screen give for UBE2E2?
BNIP3L mRNA, set 1: 0.123; NDRG1 mRNA, set 1: 0.168

Which result is listed for UBE2E2?
BNIP3L mRNA, set 1: 0.132; NDRG1 mRNA, set 1: 0.287

How did the screen score CHEK1?
BNIP3L mRNA, set 1: 0.142; NDRG1 mRNA, set 1: 0.192

What did the screen give for HRH3?
BNIP3L mRNA, set 1: 0.216; NDRG1 mRNA, set 1: 0.354

For PHF21A, what does the deposit list?
BNIP3L mRNA, set 1: 0.0459; NDRG1 mRNA, set 1: 0.103

Only “NDRG1 mRNA, set 1”, for 2 of the entries above:
CHEK1: 0.192
HRH3: 0.354

Continued.
How did the screen score MRPS25?
BNIP3L mRNA, set 1: 0.0552; NDRG1 mRNA, set 1: 0.448

What did the screen give for PHEX?
BNIP3L mRNA, set 1: 0.0767; NDRG1 mRNA, set 1: 0.119

What did the screen give for CHD6?
BNIP3L mRNA, set 1: 0.187; NDRG1 mRNA, set 1: 0.247

For GRAMD1C, what does the deposit list?
BNIP3L mRNA, set 1: 0.1; NDRG1 mRNA, set 1: 0.215

Which result is listed for ADCY10?
BNIP3L mRNA, set 1: 0.099; NDRG1 mRNA, set 1: 0.134

For NFYB, what does the deposit list?
BNIP3L mRNA, set 1: 0.0885; NDRG1 mRNA, set 1: 0.555

Which result is listed for OLR1?
BNIP3L mRNA, set 1: 0.0644; NDRG1 mRNA, set 1: 0.0808

What did the screen give for ENAM?
BNIP3L mRNA, set 1: 0.275; NDRG1 mRNA, set 1: 0.274

What did the screen give for PCDH8?
BNIP3L mRNA, set 1: 0.0879; NDRG1 mRNA, set 1: 0.0724

With DNAAF11, what does the deposit list?
BNIP3L mRNA, set 1: 0.072; NDRG1 mRNA, set 1: 0.107

With POU4F3, what was measured?
BNIP3L mRNA, set 1: 0.0459; NDRG1 mRNA, set 1: 0.114

For PTPRO, what was measured?
BNIP3L mRNA, set 1: 0.0585; NDRG1 mRNA, set 1: 0.196
